# ± gives the standard deviation of the averaged measurements. The list shows a part of the results. Many values rest on one well or one pass, so single values are uncertain.
# Test system: RAW 264.7 macrophages infected with S. aureus JE2-lux
# Test: host macrophage viability (CellTiter-Fluor) relative to DMSO vehicle; higher = more viable host cells
# Conditions: 10 µM; treatment time 4 h; gentamicin 50 µg/ml
row,Compound,host macrophage viability [%]
1,Cc1cc2nc(NC(=O)c3ccc(S(=O)(=O)N4CCCC(C)C4)cc3)sc2cc1C (stereo not given),125
2,Cc1ccc(-c2nc3c(c(SCC(N)=O)n2)Cc2cc(C)ccc2O3)cc1,128
3,O=C(Nc1cccc(F)c1)c1cnc2n(c1=O)CCS2,119
4,COC(=O)C1=C(N)Oc2cc(C)[nH]c(=O)c2C1c1cccc(OC)c1 (stereo not given),119
5,CCOC(=O)c1ccsc1NC(=O)c1coc2ccccc2c1=O,124
6,O=C1CCc2cc(S(=O)(=O)NCc3ccco3)cc3c2N1CC3,111
7,CCOC(=O)c1cccc(NC(=O)C2CCN(c3nccc4c(C)nn(CC)c34)CC2)c1,138
8,Cn1c2ccccc2c2nnc(SCC(=O)Nc3ccc4c(c3)CCC4)nc21,109
9,CCCn1cc(C(=O)Nc2ccc3c(c2)OCCO3)c2nn(-c3ccccc3)c(=O)c-2c1,99.5
10,O=C(COc1ccccc1C1CC(c2ccccc2)=NN1C(=O)c1ccccc1)NCCO (stereo not given),108
11,O=c1[nH]c(SC/C=C/c2ccccc2)nc2sc3c(c12)CCC3,99.3
12,Cn1c(=O)n(CC(N)=O)c(=O)c2c1nc1n2CCCN1c1ccc(Br)cc1,118
13,COc1ccccc1NC(=O)c1cnn2c(=O)cc(C(C)C)[nH]c12,100
14,COc1ccc(OC)c2sc(N(CCCn3ccnc3)C(=O)c3ccco3)nc12,100
15,O=C(/C=C/c1cccs1)Nc1nc2c(cc3c4c(cccc42)CC3)s1,124 ± 12
16,COc1ccc(NC2CC(=O)N(c3cc([N+](=O)[O-])ccc3C)C2=O)cc1 (stereo not given),119
17,NC(=O)c1c(NC(=O)/C=C/c2cccs2)sc2c1CCCCC2,107 ± 2.6
18,COCCCNC(=O)c1cc(-c2ccc(C)cc2)nc2n[nH]c(-c3ccc(F)cc3)c12,114
19,Cc1nc2nc(Cc3cccc(F)c3)nn2c(N2CCN(Cc3ccc4c(c3)OCO4)CC2)c1C,130
20,Cc1cccc(C2(O)CCN(C(=O)c3sc4ncn(C)c(=O)c4c3C)CC2)c1,129
21,COc1ccc(CC(=O)Nc2cc(NC(=O)c3cccs3)ccc2C)cc1OC,124
22,Cc1cc2nc(C3CCN(CC(=O)Nc4ccccc4C(F)(F)F)CC3)[nH]c2cc1C,116

row,Compound,host macrophage viability [%]
1,CCOC(=O)c1[nH]c2ccc(OC)cc2c1NC(=S)N1CCN(C(=O)OCC)CC1,128
2,COc1cc(NC(=O)c2cnc(C)cn2)ccc1NC(=O)C1CCCCC1,111
3,CC1CCN(C(=O)c2cnc3ccc(Cl)cc3c2O)CC1,104
4,Cn1c(=O)c2c(nc3n2CC(COc2ccc(Cl)cc2)O3)n(C)c1=O (stereo not given),130
5,CC(C)c1csc(-c2csc(S(=O)(=O)NC3CCCCC3)c2)n1,70
6,CC(=O)Nc1cccnc1-c1ccc(C(=O)NC2CCCc3ccccc32)cc1 (stereo not given),107
7,CCN(c1ccccc1)S(=O)(=O)c1ccc2[nH]c(=O)[nH]c2c1,121
8,O=C(Nc1ccccc1F)c1ccnc(N2CCC(C(=O)NCc3ccc(F)cc3)CC2)c1,136
9,CCCCOc1ccc(-c2cc3c(N4CCC(C(=O)N5CCCC5)CC4)nccn3n2)cc1,128
10,CCc1ccccc1NC(=O)CN1N=NC2C(=O)N(c3ccc(F)c(F)c3)C(=O)C21 (stereo not given),103
11,CCOC(=O)c1ccc(NC(=O)CSc2ncnc3c2nnn3Cc2ccccc2)cc1,111 ± 8.7
12,COc1ccc(NC(=O)c2ccc(Cn3c(=O)[nH]c4ccsc4c3=O)cc2)cc1,131
13,O=C(Nc1ccccn1)c1cccn2c(-c3ccccc3F)nnc12,114
14,COc1cccc2sc(N(CCCn3ccnc3)C(=O)c3ccc4c(c3)OCCO4)nc12,98.7
15,COc1cccc(NC(=O)CSc2nnc(Cc3ccc(Cl)cc3)c(=O)[nH]2)c1,104
16,CC1CCc2c(sc3ncn4c(=O)n(CCC(N)=O)nc4c23)C1 (stereo not given),120
17,Cc1cc(C)n(Cc2c(C(=O)NCc3c(C)nn(C)c3C)noc2C)n1,115
18,Cc1cc(-c2csc(S(=O)(=O)N3CCN(CCOc4ccc(Cl)cc4)CC3)c2)on1,103
19,Cc1c(S(=O)(=O)c2ccccc2)nnn1-c1ccccc1,116
20,S=C(Nc1ccccc1Cl)NC1CC2CCC(C1)N2Cc1ccccc1 (stereo not given),105
21,Cc1nn(S(=O)(=O)c2ccccc2[N+](=O)[O-])c(C)c1Sc1ccccc1,101
22,O=C1CCc2cc(S(=O)(=O)NCC(c3ccc(F)cc3)N3CCCC3)ccc2N1 (stereo not given),102

row,Compound,host macrophage viability [%]
1,O=C(CC1C(=O)Nc2ccccc2N1C(=O)c1cccs1)Nc1ccc(Cl)c(Cl)c1 (stereo not given),119
2,CN(C)S(=O)(=O)c1ccc(C(=O)Nc2sc3c(c2-c2nc4ccccc4s2)CCCC3)cc1,98.7
3,CCOc1cc(C(=O)NCC(=O)N/N=C/c2ccccc2)cc(OCC)c1OCC,101
4,COC(=O)c1cc(C)sc1NC(=O)CC1Sc2ccc(C(F)(F)F)cc2NC1=O (stereo not given),122
5,Cc1cc(Nc2nc(C(=O)N3CCC(N4CCCCC4)CC3)cc3occc23)ccc1Br,106
6,CCC(C(=O)Nc1c(C(=O)Nc2ccc([N+](=O)[O-])cc2)oc2ccccc12)c1ccccc1 (stereo not given),108 ± 26
7,COc1ccccc1CNC(=O)c1nccn1Cc1ccccc1Cl,109
8,O=C1Nc2c(Cl)cc(Cl)cc2/C1=N\NC(=O)c1ccccc1O,121
9,CCOC(=O)c1cnn2c(C)c(Cc3ccccc3)c(C)nc12,107
10,CCOc1ccc(C(=O)NCC(c2ccc3c(c2)CCN3C)N2CCCCC2)cc1 (stereo not given),116
11,Cn1cnnc1SCC(=O)Nc1nnc(-c2ccc(Br)cc2)s1,103 ± 11
12,Cc1[nH]c(=O)[nH]c(=O)c1NC(=O)CSc1ccc(-c2ccc(F)cc2)nn1,79.3
13,NS(=O)(=O)c1ccc(NC(=O)CCn2cnc3onc(-c4ccccc4Cl)c3c2=O)cc1,121
14,O=C(Nc1ccccc1F)N1CCc2nc(N3CCCC3)[nH]c(=O)c2C1,88.4
15,CC(C)N1CCn2c(nc3cc(NC(=O)CCc4ccccc4)ccc32)C1,102
16,O=C(CSCc1ccccc1)NCc1n[nH]c(=O)c2ccccc12,107
17,CC1CC(C)CN(S(=O)(=O)c2ccc(C(=O)Nc3ccc4ncsc4c3)cc2)C1 (stereo not given),116
18,Cc1ccc(-c2noc(-c3cn(Cc4ccc(N)cc4)cn3)n2)cc1,111
19,COc1ccc(-c2nnc3sc(-c4ccc(Br)o4)nn23)cc1,99.9
20,O=C(NCc1nnnn1-c1ccc(F)cc1)Nc1ccc2c(c1)OCO2,108
21,Cc1cccn2c(=O)nc(SCC(=O)N3CCCCCC3)nc12,113

# Random excerpt: four compounds from above
row,Compound,host macrophage viability [%]
21,Cc1cccn2c(=O)nc(SCC(=O)N3CCCCCC3)nc12,113
4,COC(=O)c1cc(C)sc1NC(=O)CC1Sc2ccc(C(F)(F)F)cc2NC1=O (stereo not given),122
3,CCOc1cc(C(=O)NCC(=O)N/N=C/c2ccccc2)cc(OCC)c1OCC,101
18,Cc1ccc(-c2noc(-c3cn(Cc4ccc(N)cc4)cn3)n2)cc1,111
